Test results from PMC10817939.
These are yes or no findings as the source states them, for the method shown. In cells and extracts the contact can be indirect.

The chains behind the UniProt entries cited, without tags or fusion partners.
UniProt O95071: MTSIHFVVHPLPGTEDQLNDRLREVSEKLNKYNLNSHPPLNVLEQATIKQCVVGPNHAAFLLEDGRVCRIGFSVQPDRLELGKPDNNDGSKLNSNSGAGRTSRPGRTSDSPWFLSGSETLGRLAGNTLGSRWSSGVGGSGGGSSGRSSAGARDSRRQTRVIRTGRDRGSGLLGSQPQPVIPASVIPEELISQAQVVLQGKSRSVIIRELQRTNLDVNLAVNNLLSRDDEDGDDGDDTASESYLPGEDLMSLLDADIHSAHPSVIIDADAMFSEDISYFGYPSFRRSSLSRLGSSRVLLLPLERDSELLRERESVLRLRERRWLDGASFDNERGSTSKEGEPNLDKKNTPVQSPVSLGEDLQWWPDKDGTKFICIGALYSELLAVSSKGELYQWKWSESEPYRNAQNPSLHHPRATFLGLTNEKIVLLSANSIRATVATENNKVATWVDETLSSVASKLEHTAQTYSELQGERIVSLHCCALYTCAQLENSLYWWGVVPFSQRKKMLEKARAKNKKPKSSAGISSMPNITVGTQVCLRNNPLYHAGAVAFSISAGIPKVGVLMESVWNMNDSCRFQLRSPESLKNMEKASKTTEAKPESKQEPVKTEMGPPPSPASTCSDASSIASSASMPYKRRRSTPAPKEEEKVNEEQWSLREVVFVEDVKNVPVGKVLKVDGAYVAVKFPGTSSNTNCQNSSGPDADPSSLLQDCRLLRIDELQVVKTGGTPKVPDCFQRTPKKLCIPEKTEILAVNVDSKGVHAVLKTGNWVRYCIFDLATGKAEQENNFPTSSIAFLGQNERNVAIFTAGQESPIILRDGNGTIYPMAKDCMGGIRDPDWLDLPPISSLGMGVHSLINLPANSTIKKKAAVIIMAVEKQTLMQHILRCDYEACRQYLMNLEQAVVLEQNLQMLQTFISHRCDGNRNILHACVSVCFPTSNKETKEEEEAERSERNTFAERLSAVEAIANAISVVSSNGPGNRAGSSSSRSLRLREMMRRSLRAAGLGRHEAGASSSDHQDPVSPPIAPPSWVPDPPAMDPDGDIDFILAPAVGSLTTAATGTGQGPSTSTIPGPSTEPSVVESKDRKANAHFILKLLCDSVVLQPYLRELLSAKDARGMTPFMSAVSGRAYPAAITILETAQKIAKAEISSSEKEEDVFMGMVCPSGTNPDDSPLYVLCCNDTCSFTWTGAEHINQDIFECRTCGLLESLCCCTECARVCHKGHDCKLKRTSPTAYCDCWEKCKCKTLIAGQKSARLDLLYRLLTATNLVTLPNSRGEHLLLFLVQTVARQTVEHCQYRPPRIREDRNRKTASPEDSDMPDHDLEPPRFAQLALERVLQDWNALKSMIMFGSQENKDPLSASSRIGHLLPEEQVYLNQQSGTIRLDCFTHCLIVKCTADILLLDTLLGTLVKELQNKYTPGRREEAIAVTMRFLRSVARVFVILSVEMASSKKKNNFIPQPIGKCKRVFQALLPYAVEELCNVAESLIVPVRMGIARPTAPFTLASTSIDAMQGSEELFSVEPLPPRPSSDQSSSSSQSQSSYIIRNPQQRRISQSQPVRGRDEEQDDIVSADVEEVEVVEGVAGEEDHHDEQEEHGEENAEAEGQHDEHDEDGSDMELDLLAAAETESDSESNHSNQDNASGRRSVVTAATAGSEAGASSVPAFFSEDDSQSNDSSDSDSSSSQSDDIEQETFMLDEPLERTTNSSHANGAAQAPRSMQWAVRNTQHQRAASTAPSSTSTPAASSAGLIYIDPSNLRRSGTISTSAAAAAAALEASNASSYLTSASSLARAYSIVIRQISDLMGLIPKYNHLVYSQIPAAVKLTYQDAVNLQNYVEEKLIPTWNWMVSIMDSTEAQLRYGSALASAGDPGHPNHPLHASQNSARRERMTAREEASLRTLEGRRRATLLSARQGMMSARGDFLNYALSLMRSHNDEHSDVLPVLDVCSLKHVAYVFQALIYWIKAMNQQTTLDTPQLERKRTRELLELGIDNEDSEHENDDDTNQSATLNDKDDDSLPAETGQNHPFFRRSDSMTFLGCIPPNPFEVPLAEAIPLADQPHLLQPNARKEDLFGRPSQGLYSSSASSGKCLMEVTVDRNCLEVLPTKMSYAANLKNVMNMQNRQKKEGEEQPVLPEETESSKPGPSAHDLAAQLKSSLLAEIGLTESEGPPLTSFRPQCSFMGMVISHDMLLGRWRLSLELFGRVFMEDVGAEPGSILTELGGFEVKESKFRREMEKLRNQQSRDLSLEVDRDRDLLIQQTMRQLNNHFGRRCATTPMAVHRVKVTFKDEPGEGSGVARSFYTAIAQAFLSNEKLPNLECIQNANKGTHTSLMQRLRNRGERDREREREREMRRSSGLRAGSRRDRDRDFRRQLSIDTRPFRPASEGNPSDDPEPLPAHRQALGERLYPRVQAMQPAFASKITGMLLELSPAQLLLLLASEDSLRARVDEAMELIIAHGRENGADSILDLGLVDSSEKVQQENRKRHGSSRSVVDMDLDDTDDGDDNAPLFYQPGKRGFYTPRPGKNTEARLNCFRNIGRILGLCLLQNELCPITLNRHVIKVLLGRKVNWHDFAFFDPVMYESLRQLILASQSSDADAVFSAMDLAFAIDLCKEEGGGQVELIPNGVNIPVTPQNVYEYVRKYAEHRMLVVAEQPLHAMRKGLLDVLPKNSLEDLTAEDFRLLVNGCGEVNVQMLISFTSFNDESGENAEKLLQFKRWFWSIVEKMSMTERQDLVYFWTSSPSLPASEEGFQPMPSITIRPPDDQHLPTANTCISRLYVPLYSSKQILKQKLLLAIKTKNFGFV

Biological target: FLAG-UBR5 (Ubiquitin Protein Ligase E3 Component N-Recognin 5) (UniProt O95071)
Test: co-IP; FLAG-tagged bait or vector expressed in HEK293T cells for 24 h (in some cases then poly (I:C) for 12 h); whole-cell extract in 150 mM NaCl, 50 mM Tris pH 7.5, 1 mM EDTA, 0.5% NP40, 10% glycerol; anti-FLAG magnetic beads overnight at 4 °C; eluted with 3x FLAG peptide; immunoblot

B1: IRF3 (protein, UniProt Q14653 1-427)
chain: MGTPKPRILPWLVSQLDLGQLEGVAWVNKSRTRFRIPWKHGLRQDAQQEDFGIFQAWAEATGAYVPGRDKPDLPTWKRNFRSALNRKEGLRLAEDRSKDPHDPHKIYEFVNSGVGDFSQPDTSPDTNGGGSTSDTQEDILDELLGNMVLAPLPDPGPPSLAVAPEPCPQPLRSPSLDNPTPFPNLGPSENPLKRLLVPGEEWEFEVTAFYRGRQVFQQTISCPEGLRLVGSEVGDRTLPGWPVTLPDPGMSLTDRGVMSYVRHVLSCLGGGLALWRAGQWLWAQRLGHCHTYWAVSEELLPNSGHGPDGEVPKDKEGGVFDLGPFIVDLITFTEGSGRSPRYALWFCVGESWPQDQPWTKRLVMVKVVPTCLRALVEMARVGGASSLENTVDLHISNSHPLSLTSDQYKAYLQDLVEGMDFQGPGES
For B1, the binding was “no binding”.
